Laboratory results published in PubChem BioAssay AID212 (DTP/NCI, 2004).
The list does not hold the whole screen: it is rich in T/C values a quarter to a half above the control, in often repeated tests (any T/C) and in doses without a T/C. Other doses and runs of a compound stand elsewhere. T/C is the treated group as % of the vehicle group. Schedule codes are those of the source, read here as Q, the interval in days (D) or hours (H), X, the number of doses. Some T/C values are followed by the survivors on the day toxicity was checked, most often the fifth; without a count, all were alive then. Some entries were tested several times; their values stand side by side, smallest first. Counts like (3×) say how often a value occurs here. Some molecules as drawn cover several salts, stereoisomers or complexes of the source; a dose is that of the sample tested. Some doses have a count of surviving animals in place of a T/C: the source holds a T/C of zero for them, seemingly a mark for toxic or unscored doses. Some doses without a T/C left all or most animals alive at the check, yet need not have been tolerated: the source hardly ever lists a survival T/C far under the control, and the zero likely stands for such cases as well. Counts of survivors are from the toxicity check (mostly the fifth day) where no day follows; animals may have died later. For survival time, the PubChem record calls one and a half times the control and up active, and a quarter to a half above the control has no call in these data; cut-offs in other NCI protocols can differ.

Test system: BDF1 mice, colon carcinoma 38 sc, T/C %
Test: NCI In Vivo Anticancer Drug Screen. Data for tumor model Colon Carcinoma 38 (subcutaneous) in B6D2F1 (BDF1) mice
In short: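 T/C readout: treated group (T) measurement over vehicle control group (C) measurement. Endpoint is survival or tumor size in mice bearing a transplanted tumor.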

[1] = T/C endpoint: median tumor weight (est.), dose: 4.0 mg/kg/injection, schedule: Q07DX002 (ip), vehicle: water, higher T/C = larger tumour
[2] = T/C endpoint: median tumor weight (est.), dose: 8.0 mg/kg/injection, schedule: Q07DX002 (ip), vehicle: water, higher T/C = larger tumour
[3] = T/C endpoint: median tumor weight (est.), dose: 16.0 mg/kg/injection, schedule: Q07DX002 (ip), vehicle: water, higher T/C = larger tumour

For `COc1cccc2c1C(=O)c1c(O)c3c(c(O)c1C2=O)C[C@@](O)(C(C)=O)C[C@@H]3OC1CC(N)C(O)C(C)O1` (stereo partly specified), the survivor count [1] was 6 of 10 on day 20, the survivor count [2] was 1 of 10 on day 20 and the survivor count (T/C endpoint: median tumor weight (est.), dose: 8.0 mg/kg/injection, schedule: Q07DX003 (ip), vehicle: saline, higher T/C = larger tumour) was 1 of 9. The survivor count [3] was 0 of 10 on day 20 and the survivor count (T/C endpoint: median tumor weight (est.), dose: 32.0 mg/kg/injection, schedule: Q07DX002 (ip), vehicle: water, higher T/C = larger tumour) was 0 of 10 on day 20.

`CC1(C)N=C(N)N=C(N)N1c1ccc(CCCCc2ccc(S(=O)(=O)F)cc2Cl)c(Cl)c1` was tested, and the T/C (T/C endpoint: median survival time, dose: 57.0 mg/kg/injection, schedule: Q01DX013 (ip), vehicle: saline with Tween-80, higher T/C = longer survival) was 131 % of control, the T/C (T/C endpoint: median tumor weight (est.), dose: 6.25 mg/kg/injection, schedule: Q07DX002 (ip), vehicle: saline, evaluated on day 20, higher T/C = larger tumour) was 126 and 131 % of control and the T/C (T/C endpoint: median tumor weight (est.), dose: 50.0 mg/kg/injection, schedule: Q07DX002 (ip), vehicle: saline, evaluated on day 20, higher T/C = larger tumour) was 133 and 133 % of control [9 of 10 alive].

`O=C1c2c(O)ccc(O)c2C(=O)c2c(NCCNCCO)ccc(NCCNCCO)c21` was tested, and the T/C (T/C endpoint: median survival time, dose: 1.4 mg/kg/injection, schedule: Q07DX004 (iv), vehicle: water, higher T/C = longer survival) was 128 % of control, the T/C (T/C endpoint: median survival time, dose: 2.0 mg/kg/injection, schedule: Q04DX004 (ip), vehicle: acid diluted with saline, higher T/C = longer survival) was 128 % of control and the survivor count (T/C endpoint: median survival time, dose: 8.0 mg/kg/injection, schedule: Q04DX004 (ip), vehicle: acid diluted with saline, higher T/C = longer survival) was 10 of 10. For the same molecule, the T/C (T/C endpoint: median tumor weight (est.), dose: 1.0 mg/kg/injection, schedule: Q07DX002 (ip), vehicle: water, evaluated on day 20, higher T/C = larger tumour) was 70, 82, 84, 108 % of control, the T/C (T/C endpoint: median tumor weight (est.), dose: 1.5 mg/kg/injection, schedule: Q07DX003 (ip), vehicle: saline with Tween-80, evaluated on day 20, higher T/C = larger tumour) was 142 % of control [9 of 10 alive] and the T/C (T/C endpoint: median tumor weight (est.), dose: 2.0 mg/kg/injection, schedule: Q07DX002 (ip), vehicle: water, evaluated on day 20, higher T/C = larger tumour) was 64, 83, 91, 103 % of control. For the same molecule, the T/C (T/C endpoint: median tumor weight (est.), dose: 3.0 mg/kg/injection, schedule: Q07DX003 (ip), vehicle: saline with Tween-80, evaluated on day 20, higher T/C = larger tumour) was 139 [9 of 10 alive] and 141 % of control [9 of 10 alive], the T/C (T/C endpoint: median tumor weight (est.), dose: 4.0 mg/kg/injection, schedule: Q07DX002 (ip), vehicle: water, evaluated on day 20, higher T/C = larger tumour) was 10, 20, 41 % of control and the survivor count [1] was 0 of 10 on day 20. The survivor count [2] was 0 of 10 on day 20 and 2 of 10 on day 20 and the survivor count [3] was 0 of 10 on day 20, 1 of 10 on day 20, 2 of 10 on day 20, 3 of 10 on day 20.

In the case of `O=C(O)Cc1cccc2c(=O)cc(-c3ccc4ccccc4c3)oc12`, the survivor count (T/C endpoint: median tumor weight (est.), dose: 400.0 mg/kg/injection, schedule: Q07DX002 (ip), vehicle: saline, higher T/C = larger tumour) is reported as 6 of 10 on day 20.

In the case of `CC1=C2CC(C)(C)/C=C\C(=O)/C(C)=C\C3=C[C@H](C)C[C@]3(O2)C1=O`, the T/C (T/C endpoint: median tumor weight (est.), dose: 12.0 mg/kg/injection, schedule: Q07DX002 (ip), vehicle: Klucel (hydroxypropylcellulose) (HPC), evaluated on day 20, higher T/C = larger tumour) is reported as 145 % of control.

In the case of `O=CC(NC(=O)N(CCCl)N=O)C(O)C(O)C(O)CO` (stereo unspecified), the T/C (T/C endpoint: median tumor weight (est.), dose: 1.87 mg/kg/injection, schedule: Q07DX003 (ip), vehicle: saline, evaluated on day 20, higher T/C = larger tumour) is reported as 133 % of control, the T/C (T/C endpoint: median tumor weight (est.), dose: 2.0 mg/kg/injection, schedule: Q07DX002 (ip), vehicle: saline, evaluated on day 20, higher T/C = larger tumour) is reported as 131 % of control and the T/C (T/C endpoint: median tumor weight (est.), dose: 3.0 mg/kg/injection, schedule: Q07DX002 (ip), vehicle: saline, evaluated on day 20, higher T/C = larger tumour) is reported as 53 [9 of 10 alive on day 20], 68, 82, 83, 84, 95, 101, 116 [9 of 10 alive on day 20], 123, 129, 152 % of control. The T/C (T/C endpoint: median tumor weight (est.), dose: 6.0 mg/kg/injection, schedule: Q07DX002 (ip), vehicle: saline, evaluated on day 20, higher T/C = larger tumour) was 63 [9 of 10 alive on day 20], 67, 76, 81 [9 of 10 alive on day 20], 94 (2×), 95, 96 (2×), 96 [9 of 10 alive on day 20], 118, 120 % of control, the T/C (T/C endpoint: median tumor weight (est.), dose: 12.0 mg/kg/injection, schedule: Q07DX002 (ip), vehicle: saline, evaluated on day 20, higher T/C = larger tumour) was 26, 35, 55, 63, 67, 72, 82, 84, 88, 94, 96, 113 % of control and the T/C (T/C endpoint: median tumor weight (est.), dose: 24.0 mg/kg/injection, schedule: Q07DX002 (ip), vehicle: saline, evaluated on day 20, higher T/C = larger tumour) was 4 [7 of 10 alive], 13 [8 of 10 alive on day 20], 23, 26, 29, 33, 45 [9 of 10 alive on day 20], 47, 57 % of control. For the same molecule, the survivor count (T/C endpoint: median tumor weight (est.), dose: 24.0 mg/kg/injection, schedule: Q07DX002 (ip), vehicle: saline, higher T/C = larger tumour) was 5 of 10 on day 20, the T/C (T/C endpoint: median tumor weight (est.), dose: 48.0 mg/kg/injection, schedule: Q07DX002 (ip), vehicle: saline, evaluated on day 20, higher T/C = larger tumour) was 46 % of control [7 of 10 alive on day 20] and the survivor count (T/C endpoint: median tumor weight (est.), dose: 48.0 mg/kg/injection, schedule: Q07DX002 (ip), vehicle: saline, higher T/C = larger tumour) was 0 of 10 on day 20, 1 of 10, 1 of 10 on day 20, 4 of 10 on day 20. The survivor count (T/C endpoint: median tumor weight (est.), dose: 48.0 mg/kg/injection, schedule: Q07DX003 (ip), vehicle: saline, higher T/C = larger tumour) was 6 of 10.
